Laboratory results from patent publication US20020166132A1, “System for regulating in vivo the expression of a transgene by conditional inhibition” (priority 2000, published 2002).
At least one compound was matched to its structure with a doubt left.

How the values were obtained:
[1] = system: SeAP reporter gene; assay: Circulating SeAP after intramuscular injection and electrotransfer of plasmids into tibialis cranialis muscle of SCID mice; type: in vivo
Procedure: The 6-week-old SCID mice were first anesthetized with a Ketamine/Xylazine mixture (250 μl/mouse). The various plasmids in solution in 150 mM NaCl were then injected intramuscularly into the tibialis cranialis muscle of the mice. […] The amount of circulating SeAP was regularly monitored by taking blood samples and assaying the phosphatase activity using the Phospha-Light kit (Tropix).

[2] = system: SeAP reporter gene; assay: SeAP activity in culture supernatants after cotransfection of NIH3T3 cells; type: cell-based, murine
[3] = system: luciferase reporter gene; assay: Luciferase activity after cotransfection of NIH 3T3 cells; type: cell-based, murine; settings: pXL3031+pTet-tTAk+pTetLucAntisense with tetracycline (1 mg/ml), FIG. 15 columns 4 and 7

Row | Compound | expression of the SeAP gene in the presence of the repressor agent ([1]; pGJA14+pTet-tTAk, 400 mg/ml in the drink, 8th day, batch 3, FIG. 27) | expression of SeAP in the presence of the repressor agent ([1]; pGJA15-2+pTet-tTAk, 400 mg/ml in the drink, 8th day, batch 5, FIG. 27) | expression of SeAP after the repressor agent taken for a week ([1]; pXL3010+pTet-tTAk+pTetSeAPantisense, 400 mg/l for 7-day periods, batch 4, FIG. 20) | expression of SeAP after the repressor agent taken for one day ([1]; pXL3010+pTet-tTAk+pTetSeAPantisense, 400 mg/l only on day 170, batch 3, FIG. 20) | expression of the SeAP reporter gene after repressor agent on the 63rd day ([1]; pXL3010+pTet-tTAk+pTetSeAPantisense, doxycycline 400 mg/l in the drink, batch 3, D70, FIG. 16B) | expression of SeAP with repressor agent ([1]; pXL3010+pTet-tTAk+pTetSeAPribozyme, doxycycline 400 mg/l in drink, Example 12) | lifting of the inhibition by the repressor agent ([2]; pGJA14+pTet-tTAk+tetracycline 1 μg/ml final, FIG. 23 column 7) | restoration of SeAP in the presence of the repressor agent ([2]; pGJA15-2+pTet-tTAk+tetracycline 1 μg/ml final, FIG. 22) | expression of the SeAP reporter gene after administration of the repressor agent ([2]; pXL3010+pTet-tTAk+pTetSeAPantisense with tetracycline (1 mg/ml), FIG. 14B columns 4 and 7) | expression of SeAP in the presence of the external repressor agent ([2]; pXL3010+pTetSeAPantisense+pTet-tTAk with tetracycline (1 mg/ml), FIG. 14A columns 5 and 7) | expression of the luciferase reporter gene in the presence of the repressor agent [3]
1 | C[C@H]1c2cccc(O)c2C(=O)C2=C(O)[C@]3(O)C(=O)C(C(N)=O)=C(O)[C@@H](N(C)C)[C@@H]3[C@@H](O)[C@@H]21 [doxycycline] | significantly activated | significantly activated | considerable increases | very slight increase | reestablish expression | restore the expression of SeAP |  |  |  |  | 
2 | CN(C)[C@@H]1C(O)=C(C(N)=O)C(=O)[C@@]2(O)C(O)=C3C(=O)c4c(O)cccc4[C@@](C)(O)[C@H]3C[C@@H]12 [tetracycline] |  |  |  |  |  |  | partially lifted | partial restoration | very satisfactory expression | induction of the expression of SeAP was observed | restored to a satisfactory level
